Several values for one entry are separate records, joined by “and”; a condition that tells them apart may be missing. Identical values can stand only once. The list shows a part of the results.

What all share (assay): protein microarray (ProtoArray v5.0), streptavidin-Alexa Fluor 647
Holding throughout (settings): 3'-biotin; 20 mM Tris (pH 7.5), 5 mM MgCl2, 100 mM KCl, 0.1% Tween-20, A/T-rich and random oligonucleotide blockers; temperature not stated; high values mean tight binding

For experiment [1], the system named is IGJ (human).
The subject of experiment [2] is IGKC (human).
The test system of experiment [3] is IGL@ (human).
Experiment [4] has as its system IGLV2-14 (human).
Experiment [5] has as its system IGSF1 (human).
Experiment [6] relates to IL17A (human).
In experiment [7] the test system is IL18BP (human).
Experiment [8] concerns IL1B (human).
Experiment [9] relates to IL1F8 (human).
Experiment [10] relates to IL1RN (human).
Experiment [11] has as its system IL2 (human).
For experiment [12], the system named is IL22 (human).
Experiment [13] concerns IL27 (human).
In experiment [14] the test system is IL32 (human).
The test system of experiment [15] is IL5 (human).
Experiment [16] has as its system IL7 (human).
Experiment [17] concerns IL8RA (human).
In experiment [18] the test system is ILVBL (human).
The subject of experiment [19] is IMPDH1 (human).
Experiment [20] relates to INDO (human).

On to “GGTGACAGGGGTATGGGGAGGGG [G4-2 biotinylated (Ct1)]”, for which the binding signal was -0.369 z-score in experiment [1]; -0.366 z-score in experiment [2]; -0.398 z-score in [3]; -0.377 z-score and -0.358 z-score in experiment [4]; -0.374 z-score in experiment [5]; -0.385 z-score in [6]. Besides, the binding signal in experiment [7] is -0.376 z-score; in experiment [8] it was -0.404 z-score; in [9], -0.396 z-score; in experiment [10] it was -0.389 z-score; in [11], -0.364 z-score; in experiment [12], -0.382 z-score. Further, the binding signal was -0.374 z-score in [13]; -0.373 z-score in [14]; -0.394 z-score in [15]; -0.393 z-score in experiment [16]; -0.368 z-score in experiment [17]; -0.377 z-score in experiment [18]. In addition, the binding signal in [19] is -0.376 z-score; in [20] it was -0.393 z-score.

The record behind these values is article PMC5996148.
